According to patent US7378495B2, “PTH-rP related peptide cancer therapeutics” (Pevion Biotech, Ltd., priority 2002, dated 2008):
Not every detail of the peptide structures is certain; ends, links or a residue may be inferred. Marks after values point to notes of the source that are not given here. Where a SMILES comes first, the peptide text is derived from it.

Key:
HLA-A(*)02.01 molecules = HLA-A(*)02.01 molecules (Homo sapiens, UniProt P04439, D140Y/D185E/D98H/E176V/E277Q/G131W/G231S/I119V/I121R/I166T/I218V/L300P/L318F/N151K/N90K/P208A/P217A/Q86G/Q94H/R138H/R169H/T345S); experiment: T2-A2 HLA up-regulation test (HLA-A2.1 class I up-regulation, peptide binding); settings: for T2 binding: positive cut-off 287.116
Description: T2-A2, HLA up-regulation test: binding of the PTR-2 and PTR-4 peptides to HLA-A(*)02.01 molecules was evaluated by means of flow cytometry using T2 cells and the method described by Nijman et al. In this assay, increased stability (the accumulation of HLA-A(*)02.01 molecules on the surface of T2 cells as a consequence of peptide binding) is measured in terms of the increased binding of the antibody directed against HLA-A(*)02.01. Briefly, 10^6 T2 cells in serum-free IMDM were incubated overnight with escalating concentrations (0, 5, 25 and 50 μg/ml) of the PTR peptides in 24-well culture plates at 37° C. in an atmosphere containing 5% CO2. The cells were then washed two times with DPBS, and subsequently incubated for one hour with an anti-HLA-A(*)02.01 (A2.69) specific monoclonal antibody (A2.69, #189HA-1; One Lambda, Inc., Canoga Park, Calif.), using 10 μl of the recommended dilution per 10^6 cells. UPC-10 (Cappel/Organon Teknika Corp) was used as an isotype control. The cells were again washed two times with DPBS, incubated with 100 μl of a 1:100 dilution of fluorescein isothiocyanate (FITC)-labeled anti-mouse IgG (Becton Dickinson Corp.), and analyzed by means of FACScan and single-color analysis. The cells were kept at 4° C. during all of the manipulations unless otherwise stated.
Peptide selection and HLA-A(*)02.01 binding: In order to test the immunogenicity of PTH-rP protein and test possible tolerance of human T cell repertoire specific for it, the PTH-rP molecules were screened with the “Parker” algorithm (BIMAS) in order to predict peptides having high theoretical HLA-A(*)02.01 binding motifs. The functional binding of the two peptides to HLA-A(*)02.01 molecules was tested in vitro by means of the T2 test. PTH-rP peptides with similar or overlapping amino acid homology to the analogue sequences of parathyroid hormone (PTH) were cut out of the screening. The peptide sequences included in the first 36 amino acids (pro-peptide) were ignored although theoretically predicted with higher affinity for the HLA-A(*)02.01 molecule. The peptide sequences included in the mature PTH-rP molecules and responsible for its biological activity (amino acid 37-177, Suva et al., Science 237: 893-896, 1987) were examined. Two representative peptides were selected for this study, PTR-2 (SEQ ID NO: 3; p59-68, […]) and PTR-4 (SEQ ID NO: 5; p165-173, […]).

[1] = test system: MDA-MB 231 (breast) HLA-A(*)02.01+/PTH-rP+ tumor cell line; experiment: 18 hour 111In release assay of PTH-rP peptide specific human CTL lines; type: cell-based; settings: HLA-A(*)02.01 restricted
[2] = test system: LNCaP (prostate) HLA-A(*)02.01+/PTH-rP+ tumor cell line; experiment: as above; type: cell-based; settings: HLA-A(*)02.01 restricted
[3] = test system: HLA-A(*)02.01+/PTH-rP- cell line SW-1463 (colon carcinoma); experiment: as above; type: cell-based; settings: negative control target

SMILES | T2 binding (HLA-A(*)02.01 molecules; peptide 5 μg/ml) | T2 binding (HLA-A(*)02.01 molecules; peptide 25 μg/ml) | T2 binding (HLA-A(*)02.01 molecules; peptide 50 μg/ml) | Killing by peptide-specific CTL lines [1] | Killing by peptide-specific CTL lines [2] | Killing by peptide-specific CTL lines [3] | HLA-A(*)02.01 binding affinity (in words) (HLA-A(*)02.01 molecules)
CC[C@H](C)[C@H](NC(=O)[C@H](CC(C)C)NC(=O)[C@H](Cc1c[nH]cn1)NC(=O)[C@H](Cc1c[nH]cn1)NC(=O)[C@H](CC(C)C)NC(=O)[C@@H](N)Cc1ccccc1)C(=O)N[C@@H](C)C(=O)N[C@@H](CCC(=O)O)C(=O)N[C@H](C(=O)N[C@@H](Cc1c[nH]cn1)C(=O)O)[C@@H](C)CC [PTR-2] (H-FLHHLIAEIH-OH) | 279^d relative fluorescence values | 532^e relative fluorescence values | 719.2^f relative fluorescence values | able to kill | able to kill | no lysis | –
CC(C)C[C@H](NC(=O)[C@H](CCC(=O)O)NC(=O)[C@H](CC(C)C)NC(=O)[C@H](CO)NC(=O)[C@@H](NC(=O)[C@@H](NC(=O)[C@H](CO)NC(=O)[C@@H](N)[C@@H](C)O)[C@@H](C)O)[C@@H](C)O)C(=O)N[C@@H](CC(=O)O)C(=O)O [PTR-4] (H-TSTTSLELD-OH) | 291^d relative fluorescence values | 362.4^e relative fluorescence values | 399.4^f relative fluorescence values | able to kill | able to kill | no lysis | intermediate-low binding affinity
